For one substance, binding results are on record in patent publication EP2050458A1, “IL24 for inducing hyperproliferative or autoimmune cell death” (INSTITUT NATIONAL DE LA SANTE ET DE LA RECHERCHE MEDICALE …, priority 2007, dated 2009).

Sequences of proteins named here, by UniProt entry; tags and fusion partners are left off.
UniProt P29350: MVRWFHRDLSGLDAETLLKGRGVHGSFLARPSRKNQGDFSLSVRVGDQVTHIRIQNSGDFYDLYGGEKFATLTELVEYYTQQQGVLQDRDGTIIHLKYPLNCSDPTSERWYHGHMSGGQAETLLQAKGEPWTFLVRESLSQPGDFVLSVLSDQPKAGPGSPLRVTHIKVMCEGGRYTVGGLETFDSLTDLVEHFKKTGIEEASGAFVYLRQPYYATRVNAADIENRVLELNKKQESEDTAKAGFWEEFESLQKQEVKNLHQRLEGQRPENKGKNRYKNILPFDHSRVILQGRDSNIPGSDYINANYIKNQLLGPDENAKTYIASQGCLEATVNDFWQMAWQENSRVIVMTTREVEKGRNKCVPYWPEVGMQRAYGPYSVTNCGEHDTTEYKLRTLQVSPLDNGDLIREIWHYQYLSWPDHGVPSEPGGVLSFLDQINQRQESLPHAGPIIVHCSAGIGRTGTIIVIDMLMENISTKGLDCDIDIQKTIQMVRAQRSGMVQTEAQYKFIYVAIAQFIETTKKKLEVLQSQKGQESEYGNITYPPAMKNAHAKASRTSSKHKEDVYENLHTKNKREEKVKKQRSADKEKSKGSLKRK

Assay [1] addresses T1, IL24 receptor (IL20 R-a + IL20 R-b chains) (human) (UniProt Q9UHF4+Q6UXL0).
T1 sequence (looked up) 1: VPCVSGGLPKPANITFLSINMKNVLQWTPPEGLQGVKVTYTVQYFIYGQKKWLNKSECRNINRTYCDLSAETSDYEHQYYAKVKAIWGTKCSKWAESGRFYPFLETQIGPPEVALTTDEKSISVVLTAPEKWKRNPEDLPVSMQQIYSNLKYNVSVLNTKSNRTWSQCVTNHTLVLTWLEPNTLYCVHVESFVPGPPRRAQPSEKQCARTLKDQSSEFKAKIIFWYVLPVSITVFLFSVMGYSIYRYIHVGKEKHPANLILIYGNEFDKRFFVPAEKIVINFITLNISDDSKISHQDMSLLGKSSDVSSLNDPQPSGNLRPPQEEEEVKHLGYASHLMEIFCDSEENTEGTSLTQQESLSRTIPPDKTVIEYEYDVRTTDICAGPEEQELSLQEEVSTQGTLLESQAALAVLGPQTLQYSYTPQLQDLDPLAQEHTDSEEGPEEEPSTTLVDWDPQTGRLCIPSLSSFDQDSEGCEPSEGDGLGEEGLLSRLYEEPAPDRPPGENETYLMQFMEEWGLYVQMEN
T1 sequence (looked up) 2: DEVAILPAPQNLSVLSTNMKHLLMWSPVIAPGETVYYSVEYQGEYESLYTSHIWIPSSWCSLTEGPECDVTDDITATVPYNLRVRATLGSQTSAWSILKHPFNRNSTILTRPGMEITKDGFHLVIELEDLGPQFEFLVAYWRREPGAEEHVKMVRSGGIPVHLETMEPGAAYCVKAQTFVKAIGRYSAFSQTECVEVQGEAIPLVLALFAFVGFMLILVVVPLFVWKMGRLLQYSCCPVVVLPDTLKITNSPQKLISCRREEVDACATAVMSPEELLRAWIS
Put plainly: co-immunoprecipitation from CLL cell lysates with anti-IL20 R-a + anti-IL20 R-b antibodies, Western blot with anti-SHP-1.

The target of assay [2] is T1, IL24 receptor (IL20 R-a + IL20 R-b chains) (human). Put plainly: co-immunoprecipitation from CLL cell lysates, Western blot (restated in the discussion).

Results are given in words; binding and its absence hold for the method and conditions named. In cells and extracts the contact can be indirect. Some binding calls cover weakened binding; strength is not graded here.

Take “SHP-1 (src homology-2 containing tyrosine phosphatase 1) (from UniProt P29350 1-595) (enzyme)”: the binding entry in assay [1] and in assay [2] was “binds” throughout.
